Taken from: PubChem BioAssay AID493246 (Drosophila RNAi Screening Center, 2011)

- Purpose: 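Identify essential fly genes by loss of cell viability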 (primary screen)
- System: Drosophila Kc and S2R+ cells
- Reagent: long dsRNA against Drosophila genes
- Measured: 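Raw, unnormalised count of remaining cells in each well; per-plate z-scores of cell number underlie the calls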
- Direction: Kc cell number and S2R+ cell number: higher = more cells remaining
- Hit rule: 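Counted as a hit if cell number falls by a z-score of at least 3 within its plate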
The deposit covers about 21,000 reagents; below is an unselected part of those that have a named target and a result. In the full data, 429 (2%) were called active. 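Values are raw and not normalised between plates; calls rest on per-plate z-scores that were not deposited.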 Reagents against one gene are numbered here. Reagent sequences are not shown. The record does not give: the amount of reagent, the time to read-out.

With knock-down of Dhc1 (GeneID 41171) the results were Kc cell number, rep 1 = 1.34e6; Kc cell number, rep 2 = 1.31e6; S2R+ cell number, rep 1 = 1.27e6; S2R+ cell number, rep 2 = 1.31e6; inactive. Silencing of CG3999 (GeneID 41253) came out at: Kc cell number, rep 1 = 1.51e6; Kc cell number, rep 2 = 1.46e6; S2R+ cell number, rep 1 = 1.30e6; S2R+ cell number, rep 2 = 1.39e6; inactive. For LBR (GeneID 37482), the values are Kc cell number, rep 1 = 1.18e6; Kc cell number, rep 2 = 1.18e6; S2R+ cell number, rep 1 = 1.06e6; S2R+ cell number, rep 2 = 9.54e5; inactive. CG16753 (GeneID 38365) showed Kc cell number, rep 1 = 1.38e6; Kc cell number, rep 2 = 1.42e6; S2R+ cell number, rep 1 = 1.21e6; S2R+ cell number, rep 2 = 1.05e6; inactive. Against CG14017 (GeneID 33787), the entry reads Kc cell number, rep 1 = 1.46e6; Kc cell number, rep 2 = 1.35e6; S2R+ cell number, rep 1 = 1.09e6; S2R+ cell number, rep 2 = 1.27e6; inactive. Depletion of Decay (GeneID 42008) came out at: Kc cell number, rep 1 = 1.46e6; Kc cell number, rep 2 = 1.58e6; S2R+ cell number, rep 1 = 1.12e6; S2R+ cell number, rep 2 = 1.17e6; inactive.

After knock-down of kermit (GeneID 46027), the record shows Kc cell number, rep 1 = 1.34e6; Kc cell number, rep 2 = 1.42e6; S2R+ cell number, rep 1 = 1.07e6; S2R+ cell number, rep 2 = 1.12e6; inactive. NaPi-T (GeneID 36651) showed Kc cell number, rep 1 = 1.48e6; Kc cell number, rep 2 = 1.55e6; S2R+ cell number, rep 1 = 1.32e6; S2R+ cell number, rep 2 = 1.35e6; inactive. After knock-down of ninaE (GeneID 42367) the results were Kc cell number, rep 1 = 1.19e6; Kc cell number, rep 2 = 1.25e6; S2R+ cell number, rep 1 = 1.08e6; S2R+ cell number, rep 2 = 1.37e6; inactive. TBC1D16 (GeneID 34431) gave Kc cell number, rep 1 = 1.52e6; Kc cell number, rep 2 = 1.66e6; S2R+ cell number, rep 1 = 1.27e6; S2R+ cell number, rep 2 = 1.38e6; inactive. With knock-down of Mtk (GeneID 36708), the screen gave Kc cell number, rep 1 = 1.63e6; Kc cell number, rep 2 = 1.64e6; S2R+ cell number, rep 1 = 1.26e6; S2R+ cell number, rep 2 = 1.46e6; inactive.

Limited to “Kc cell number, rep 1” (2 entries from above):
Decay (GeneID 42008): 1.46e6
kermit (GeneID 46027): 1.34e6

The results go on.
Knock-down of clumsy (GeneID 35394) resulted in: Kc cell number, rep 1 = 1.69e6; Kc cell number, rep 2 = 1.76e6; S2R+ cell number, rep 1 = 1.28e6; S2R+ cell number, rep 2 = 3.97e5; inactive. After knock-down of Polr3I (GeneID 32678), the record shows Kc cell number, rep 1 = 1.56e6; Kc cell number, rep 2 = 1.64e6; S2R+ cell number, rep 1 = 1.03e6; S2R+ cell number, rep 2 = 1.16e6; inactive. For CG42458 (GeneID 2768945), the values are Kc cell number, rep 1 = 1.18e6; Kc cell number, rep 2 = 1.22e6; S2R+ cell number, rep 1 = 5.54e5; S2R+ cell number, rep 2 = 5.81e5; active. Knock-down of ro (GeneID 43234) gave: Kc cell number, rep 1 = 1.64e6; Kc cell number, rep 2 = 1.72e6; S2R+ cell number, rep 1 = 8.98e5; S2R+ cell number, rep 2 = 1.07e6; inactive. For CG32436 (GeneID 40362) #1, the values are Kc cell number, rep 1 = 1.65e6; Kc cell number, rep 2 = 2.00e6; S2R+ cell number, rep 1 = 1.24e6; S2R+ cell number, rep 2 = 1.38e6; inactive. After knock-down of CG32436 (GeneID 40362) #2, the record shows Kc cell number, rep 1 = 1.46e6; Kc cell number, rep 2 = 1.64e6; S2R+ cell number, rep 1 = 1.21e6; S2R+ cell number, rep 2 = 1.32e6; inactive.

With knock-down of pths (GeneID 35379), the record shows Kc cell number, rep 1 = 1.46e6; Kc cell number, rep 2 = 1.57e6; S2R+ cell number, rep 1 = 1.23e6; S2R+ cell number, rep 2 = 3.66e5; inactive. After knock-down of Npc2g (GeneID 43648), the record shows Kc cell number, rep 1 = 1.55e6; Kc cell number, rep 2 = 1.60e6; S2R+ cell number, rep 1 = 1.03e6; S2R+ cell number, rep 2 = 1.20e6; inactive. Depletion of CG32652 (retired record) (GeneID 318141) resulted in: Kc cell number, rep 1 = 1.40e6; Kc cell number, rep 2 = 1.51e6; S2R+ cell number, rep 1 = 1.09e6; S2R+ cell number, rep 2 = 1.21e6; inactive. Silencing of CG32432 (GeneID 40310) #1 resulted in: Kc cell number, rep 1 = 9.60e5; Kc cell number, rep 2 = 6.80e5; S2R+ cell number, rep 1 = 6.11e5; S2R+ cell number, rep 2 = 7.01e5; active. For CG32432 (GeneID 40310) #2, the entry reads Kc cell number, rep 1 = 1.48e6; Kc cell number, rep 2 = 1.45e6; S2R+ cell number, rep 1 = 8.01e5; S2R+ cell number, rep 2 = 8.61e5; active. For CG32432 (GeneID 40310) #3, the values are Kc cell number, rep 1 = 1.30e6; Kc cell number, rep 2 = 1.31e6; S2R+ cell number, rep 1 = 1.32e6; S2R+ cell number, rep 2 = 1.36e6; inactive.
